The list does not hold the whole screen: it is rich in T/C values a quarter to a half above the control, in often repeated tests (any T/C) and in doses without a T/C. Further doses and runs are listed elsewhere. T/C gives the treated animals as a percentage of the vehicle group. Some entries give survivors of the animals treated and no T/C: the source files T/C as zero there, which appears to mark a toxic dose or a test without result, not a measured value. Some survivor counts are full or nearly so, which does not show that the dose was tolerated: survival well below the control is almost never listed, so the zero probably covers shortened survival too. Survivors were counted at the toxicity check, usually on the fifth day, unless a day is given; later deaths do not show. Schedules are NCI's codes, read here as Q, the interval in days (D) or hours (H), X, the number of doses. Some doses were run more than once; their values stand side by side, smallest first. For survival time, this PubChem deposit counts one and a half times the control or more as active, and values a quarter to a half above the control carry no call in these data; other NCI protocols may use other cut-offs.
Tested on: P1534 leukemia ip, CD2F1 mice, survival T/C
Test: NCI In Vivo Anticancer Drug Screen. Data for tumor model P1534 Leukemia (intraperitoneal) in CD2F1 (CDF1) mice
Details: higher T/C = longer survival
Experimental: The antitumor activity of compounds was measured in mice bearing transplantable tumors. Survival or tumor size were measured and the results are expressed as the measurement made in the treated group (T) divided by the measurement made in the vehicle treated control group (C). The tumor model used in this assay is P1534 Leukemia (intraperitoneal) in CD2F1 (CDF1) mice

[1] = T/C endpoint: mean survival time, dose: 6.0 mg/kg/injection, schedule: Q01DX010 (ip), vehicle: saline
[2] = T/C endpoint: mean survival time, dose: 50.0 mg/kg/injection, schedule: Q01DX010 (ip), vehicle: saline
[3] = T/C endpoint: mean survival time, dose: 10.0 mg/kg/injection, schedule: Q01DX010 (ip), vehicle: saline
[4] = T/C endpoint: mean survival time, dose: 40.0 mg/kg/injection, schedule: Q01DX010 (ip), vehicle: saline
[5] = T/C endpoint: mean survival time, dose: 80.0 mg/kg/injection, schedule: Q01DX010 (ip), vehicle: saline
[6] = T/C endpoint: mean survival time, dose: 250.0 mg/kg/injection, schedule: Q01DX010 (ip), vehicle: saline
[7] = T/C endpoint: mean survival time, dose: 500.0 mg/kg/injection, schedule: Q01DX010 (ip), vehicle: saline
[8] = T/C endpoint: mean survival time, dose: 400.0 mg/kg/injection, schedule: Q01DX010 (ip), vehicle: saline
[9] = T/C endpoint: mean survival time, dose: 200.0 mg/kg/injection, schedule: Q01DX010 (ip), vehicle: saline
[10] = T/C endpoint: mean survival time, dose: 100.0 mg/kg/injection, schedule: Q01DX010 (ip), vehicle: saline

SMILES: CC[C@]12CN3CCc4c([nH]c5ccccc45)[C@@](C(=O)OC)(c4cc5c(cc4OC)N(C)[C@H]4[C@@](O)(C(=O)OC)[C@H](OC(C)=O)[C@]6(CC)C=CCN7CC[C@]54[C@@H]76)CC(C3)[C@H]1O2 (some centres undefined)
- T/C (T/C endpoint: mean survival time, dose: 0.75 mg/kg/injection, schedule: Q01DX010 (ip), vehicle: saline): 146 % of control
- survivor count [1]: 6 of 6
- T/C (T/C endpoint: mean survival time, dose: 750.0 micrograms/kg/injection, schedule: Q01DX010 (ip), vehicle: saline): 143 % of control

SMILES: O=NN(CCCl)C(=O)NCCCl
- survivor count (T/C endpoint: mean survival time, dose: 25.0 mg/kg/injection, schedule: Q01DX010 (ip), vehicle: saline): 5 of 6 and 6 of 6
- survivor count [2]: 3 of 6 and 5 of 6

SMILES: N[C@@H](Cc1ccc(N(CCCl)CCCl)cc1)C(=O)O
- survivor count (T/C endpoint: mean survival time, dose: 5.0 mg/kg/injection, schedule: Q01DX010 (ip), vehicle: saline): 6 of 6
- survivor count [3]: 6 of 6

SMILES: CN(C)c1ccc(C(N)=O)cn1
- T/C [1]: 130 % of control
- survivor count (T/C endpoint: mean survival time, dose: 12.0 mg/kg/injection, schedule: Q01DX010 (ip), vehicle: saline): 6 of 6

SMILES: O=c1[nH]c(=O)n(C2CC(O)C(CO)O2)cc1F (centres undefined)
- T/C [3]: 135 % of control
- T/C (T/C endpoint: mean survival time, dose: 20.0 mg/kg/injection, schedule: Q01DX010 (ip), vehicle: saline): 142 % of control
- T/C [4]: 125 % of control
- survivor count [5]: 6 of 6

SMILES: NC(N)=NCCCC(N)C(=O)NCCCCCCNCCCCCCNC(=O)C(N)CCCN=C(N)N (centres undefined)
- survivor count [4]: 0 of 6

SMILES: Clc1[nH]nc2ccccc12
- survivor count [6]: 6 of 6
- survivor count [7]: 6 of 6

SMILES: CS(=O)(=O)OCC(O)C(O)C(O)C(O)COS(C)(=O)=O (centres undefined)
- T/C [8]: 135 % of control

SMILES: CCCCOP(=S)(N1CC1)N1CC1
- survivor count (T/C endpoint: mean survival time, dose: 16.0 mg/kg/injection, schedule: Q01DX010 (ip), vehicle: saline): 6 of 6
- survivor count (T/C endpoint: mean survival time, dose: 32.0 mg/kg/injection, schedule: Q01DX010 (ip), vehicle: saline): 5 of 6

SMILES: O=C(NO)c1cccnc1
- T/C (T/C endpoint: mean survival time, dose: 400.0 mg/kg/injection, schedule: Q01DX010 (ip), vehicle: water): 129 % of control
- survivor count (T/C endpoint: mean survival time, dose: 900.0 mg/kg/injection, schedule: Q01DX010 (ip), vehicle: water): 1 of 6

SMILES: CN1CCN(CCCN2c3ccccc3Sc3ccc(C(F)(F)F)cc32)CC1
- survivor count [5]: 6 of 6
- survivor count (T/C endpoint: mean survival time, dose: 160.0 mg/kg/injection, schedule: Q01DX010 (ip), vehicle: saline): 0 of 6

SMILES: CS(=O)(=O)OCCC(=O)N1CCN(C(=O)CCOS(C)(=O)=O)CC1
- T/C (T/C endpoint: mean survival time, dose: 12.5 mg/kg/injection, schedule: Q01DX010 (ip), vehicle: saline): 143 % of control

SMILES: CNCC(O)(C(=O)O)C(=O)O
- survivor count [9]: 6 of 6
- survivor count [8]: 2 of 6

SMILES: COc1ccc2c(c1OC)C(=O)O[C@@H]2[C@H]1c2c(cc3c(c2OC)OCO3)CCN1C
- survivor count (T/C endpoint: mean survival time, dose: 125.0 mg/kg/injection, schedule: Q01DX010 (ip), vehicle: saline): 6 of 6
- survivor count [6]: 3 of 6
- survivor count [7]: 0 of 6

SMILES: C/C=C1/CN(C)C2Cc3c([nH]c4ccccc34)C(c3cc4[nH]c5c(c4cc3OC)CCN3CC4CC(C(C)O)C3C5(C(=O)OC)C4)CC1C2C(=O)OC (centres undefined)
- survivor count (T/C endpoint: mean survival time, dose: 20.0 mg/kg/injection, schedule: Q01DX010 (ip), vehicle: other): 3 of 6
- survivor count (T/C endpoint: mean survival time, dose: 30.0 mg/kg/injection, schedule: Q01DX010 (ip), vehicle: other): 0 of 6
- survivor count (T/C endpoint: mean survival time, dose: 40.0 mg/kg/injection, schedule: Q01DX010 (ip), vehicle: other): 0 of 6
- survivor count (T/C endpoint: mean survival time, dose: 60.0 mg/kg/injection, schedule: Q01DX010 (ip), vehicle: other): 0 of 6

SMILES: CN1C2CCC1CC(OC(=O)C(CO)c1ccccc1)C2 (centres undefined)
- survivor count [10]: 5 of 6
- survivor count [9]: 0 of 6

SMILES: c1ccc2ncccc2c1
- survivor count [9]: 0 of 6

SMILES: OCCN1CCC(CCCC2CCNCC2)CC1
- survivor count [10]: 0 of 6

SMILES: CN(Cc1cnc2nc(N)nc(N)c2n1)c1ccc(C(=O)N[C@@H](CCC(=O)O)C(=O)O)cc1
- T/C (T/C endpoint: median survival time, dose: 2.0 mg/kg/injection, schedule: Q01DX009 (ip), vehicle: sodium bicarbonate): 134 % of control

SMILES: CC(C)=CCN=C(N)N
- survivor count (T/C endpoint: mean survival time, dose: 6.25 mg/kg/injection, schedule: Q01DX010 (ip), vehicle: saline): 6 of 6
- survivor count [2]: 0 of 6

SMILES: Clc1ncnc2nc[nH]c12
- T/C (T/C endpoint: mean survival time, dose: 15.0 mg/kg/injection, schedule: Q01DX010 (ip), vehicle: saline): 125 % of control
- T/C (T/C endpoint: mean survival time, dose: 30.0 mg/kg/injection, schedule: Q01DX010 (ip), vehicle: saline): 125 % of control
- T/C (T/C endpoint: mean survival time, dose: 60.0 mg/kg/injection, schedule: Q01DX010 (ip), vehicle: saline): 125 % of control

SMILES: O=C(NCCCCC(NC(=O)OCc1ccccc1)C(=O)NCCCCCCNCCCCCCNC(=O)C(CCCCNC(=O)OCc1ccccc1)NC(=O)OCc1ccccc1)OCc1ccccc1 (centres undefined)
- survivor count [10]: 3 of 6

Reference: PubChem BioAssay AID316 (DTP/NCI, 2004)
